Data as given in PubChem BioAssay AID652243 (Drosophila RNAi Screening Center, 2013).
Test: 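Fly regulators of androgen-dependent reporter output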 (primary screen). Cell system: Drosophila S2R+ cells. Knock-down reagent: long dsRNA against Drosophila genes. Timing: 72 h (48 h, then 24 h hormone). Conditions: synthetic androgen R1881 at 10 nM for 24 h. Detection: 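Firefly light from an androgen-responsive reporter and Renilla control light per well, raw and unnormalised, for each of two replicates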. Scale: firefly reporter light: higher = more light from androgen-responsive reporter; Renilla control light: higher = more constitutive control signal (cell number, transfection). Hit rule: 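Hit when the log firefly-to-Renilla ratio dropped or increased by a fixed fold versus the mean of GFP or LacZ controls across duplicate plates; lowering cut given as 1.5 and as 3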. Meaning of the calls: active = hit: reporter lowered or raised; inactive = no hit.
In all, the deposit lists about 24,000 reagents; below is an unselected part of those with a known target gene and a result. In the full data, 246 (1%) are marked active. 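Plates not normalised; calls are printed but the firefly/Renilla ratio behind them is not deposited; fold cut for lowering reported inconsistently.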 Raw values are not corrected between plates. Names joined by + are all predicted targets of the reagent. No sequences are given here. Not given: the amount of reagent.

The opening 2 entries as a preview:
| predicted target | DRSC id | firefly reporter light, replicate 1 | firefly reporter light, replicate 2 | Renilla control light, replicate 1 | Renilla control light, replicate 2 | Outcome |
| --- | --- | --- | --- | --- | --- | --- |
| CG14185 | DRSC10184 | 2.46e5 | 2.24e5 | 1.94e6 | 2.31e6 | inactive |
| gus (gustavus) | DRSC04885 | 1.20e6 | 6.65e5 | 2.97e6 | 2.04e6 | inactive |

The listing, repeating the preview:
| predicted target | DRSC id | firefly reporter light, replicate 1 | firefly reporter light, replicate 2 | Renilla control light, replicate 1 | Renilla control light, replicate 2 | Outcome |
| --- | --- | --- | --- | --- | --- | --- |
| CG14185 | DRSC10184 | 2.46e5 | 2.24e5 | 1.94e6 | 2.31e6 | inactive |
| gus (gustavus) | DRSC04885 | 1.20e6 | 6.65e5 | 2.97e6 | 2.04e6 | inactive |
| gus (gustavus) | DRSC04886 | 4.25e5 | 4.44e5 | 2.38e6 | 2.82e6 | inactive |
| gus (gustavus) | DRSC27153 | 3.53e5 | 2.70e5 | 7.24e5 | 7.03e5 | inactive |
| CG15096 | DRSC06525 | 2.72e5 | 3.76e5 | 7.38e5 | 7.38e5 | inactive |
| CG15096 | DRSC29737 | 3.10e5 | 2.97e5 | 8.88e5 | 1.08e6 | inactive |
| CG32647 | DRSC19690 | 5.83e5 | 3.73e5 | 4.72e6 | 3.36e6 | inactive |
| CG32647 | DRSC19878 | 4.27e5 | 3.41e5 | 2.63e6 | 1.78e6 | inactive |
| IPIP + CG34179 + slmo | DRSC38686 | 6.20e5 | 6.35e5 | 1.83e6 | 1.98e6 | inactive |
| Cyp9f2 (Cytochrome P450 9f2) | DRSC16635 | 77933 | 59144 | 5.35e5 | 7.78e5 | inactive |
| Parp1 (Poly-(ADP-ribose) polymerase 1) | DRSC07725 | 2.04e5 | 1.52e5 | 2.64e5 | 3.50e5 | inactive |
| Parp1 (Poly-(ADP-ribose) polymerase 1) | DRSC07778 | 94178 | 64801 | 8.01e5 | 1.04e6 | inactive |
| Parp1 (Poly-(ADP-ribose) polymerase 1) | DRSC07780 | 78721 | 78419 | 1.11e6 | 9.22e5 | inactive |
| CG7728 | DRSC10907 | 52108 | 60166 | 4.88e5 | 3.40e5 | inactive |
| CG7728 | DRSC28948 | 9.73e5 | 7.85e5 | 2.01e6 | 1.59e6 | inactive |
| CG3448 | DRSC10368 | 1.47e5 | 1.19e5 | 1.19e6 | 1.14e6 | inactive |
| CG3448 | DRSC27580 | 4.14e5 | 2.43e5 | 7.20e5 | 4.45e5 | inactive |
| CG31643 | DRSC00906 | 2.63e5 | 1.79e5 | 6.45e5 | 4.86e5 | inactive |
| Ugt301D1 (UDP-glycosyltransferase family 301 member D1) | DRSC02021 | 1.85e5 | 1.53e5 | 1.71e6 | 1.51e6 | inactive |
| Ptpmeg2 (Protein tyrosine phosphatase Meg2) | DRSC18277 | 1.24e5 | 2.21e5 | 2.32e6 | 3.01e6 | inactive |
| Ptpmeg2 (Protein tyrosine phosphatase Meg2) | DRSC18278 | 1.89e5 | 1.47e5 | 2.15e6 | 1.97e6 | inactive |
| Ptpmeg2 (Protein tyrosine phosphatase Meg2) | DRSC23303 | 5.52e5 | 4.45e5 | 1.38e6 | 1.06e6 | inactive |
| Ptpmeg2 (Protein tyrosine phosphatase Meg2) | DRSC26646 | 3.80e5 | 4.26e5 | 5.53e5 | 7.39e5 | inactive |
| CG31464 | DRSC14345 | 56037 | 93771 | 1.54e6 | 1.69e6 | inactive |
| CG32537 | DRSC20073 | 76254 | 1.07e5 | 4.64e5 | 9.42e5 | inactive |
| CG32537 | DRSC23589 | 7.22e5 | 8.47e5 | 5.90e5 | 5.87e5 | inactive |
| CG9588 | DRSC16504 | 1.58e5 | 2.05e5 | 2.38e6 | 2.44e6 | inactive |
| CG7685 | DRSC16285 | 1.50e5 | 1.09e5 | 1.66e6 | 1.77e6 | inactive |
| CG7685 | DRSC27560 | 3.26e5 | 2.68e5 | 7.75e5 | 8.82e5 | inactive |
| mthl10 (methuselah-like 10) | DRSC08504 | 1.35e5 | 1.48e5 | 1.15e6 | 1.05e6 | inactive |
| mthl10 (methuselah-like 10) | DRSC08505 | 99027 | 1.54e5 | 2.32e6 | 2.02e6 | inactive |
| mthl10 (methuselah-like 10) | DRSC39158 | 8.56e5 | 7.98e5 | 1.33e6 | 1.42e6 | inactive |
| CG3776 | DRSC04417 | 1.38e6 | 1.08e6 | 1.29e6 | 1.21e6 | inactive |
| Ptr (Patched-related) | DRSC04852 | 2.37e5 | 2.33e5 | 1.58e6 | 1.05e6 | inactive |
| Ptr (Patched-related) | DRSC21517 | 6.30e5 | 5.68e5 | 2.14e6 | 1.67e6 | inactive |
| CG18284 | DRSC02661 | 7.25e5 | 1.04e6 | 2.77e6 | 2.77e6 | inactive |
| CG18284 | DRSC20756 | 5.33e5 | 4.69e5 | 8.11e5 | 6.94e5 | inactive |
| CG18284 | DRSC25271 | 8.27e5 | 9.38e5 | 9.66e5 | 1.05e6 | inactive |
| CG13694 | DRSC00363 | 67306 | 1.08e5 | 4.17e5 | 5.49e5 | inactive |
| grp (grapes) | DRSC37018 | – | – | – | – | inactive |
| bcn92 | DRSC18741 | 3.72e5 | 3.85e5 | 4.03e6 | 2.63e6 | inactive |
| bcn92 | DRSC28946 | 7.31e5 | 6.27e5 | 1.12e6 | 1.19e6 | inactive |
| Alp13 (Alkaline phosphatase 13) | DRSC15781 | 1.22e5 | 1.37e5 | 2.81e6 | 1.82e6 | inactive |
| Alp13 (Alkaline phosphatase 13) | DRSC36919 | – | – | – | – | inactive |
| CG15731 | DRSC19698 | 3.69e5 | 4.78e5 | 3.18e6 | 3.60e6 | inactive |
| CG15731 | DRSC21820 | 5.48e5 | 5.05e5 | 2.02e6 | 2.32e6 | inactive |
| CG15731 | DRSC26144 | 4.48e5 | 2.63e5 | 7.56e5 | 7.08e5 | inactive |
| Atac3 (Ada2a-containing complex component 3) | DRSC08579 | 1.17e5 | 79154 | 9.34e5 | 1.12e6 | inactive |
| Nup107 (Nucleoporin 107kD) | DRSC01999 | 94907 | 1.39e5 | 1.14e6 | 1.45e6 | inactive |
| Tango2 (Transport and Golgi organization 2) | DRSC19394 | 90957 | 1.05e5 | 5.78e5 | 7.97e5 | inactive |
| Tango2 (Transport and Golgi organization 2) | DRSC21526 | 6.87e5 | 7.98e5 | 1.61e6 | 1.46e6 | inactive |
| Klp59D (Kinesin-like protein at 59D) | DRSC04118 | 3.71e5 | 3.43e5 | 2.65e6 | 2.80e6 | inactive |
| Klp59D (Kinesin-like protein at 59D) | DRSC24436 | 2.32e5 | 2.81e5 | 3.64e5 | 3.94e5 | inactive |
| Klp59D (Kinesin-like protein at 59D) | DRSC39041 | 7.33e5 | 3.61e5 | 2.01e6 | 1.71e6 | inactive |
| cype (cyclope) | DRSC02356 | 87424 | 69589 | 7.06e5 | 7.86e5 | inactive |
| mAChR-B (muscarinic Acetylcholine Receptor, B-type) | DRSC16345 | 1.03e5 | 54439 | 1.94e6 | 1.37e6 | inactive |
| mAChR-B (muscarinic Acetylcholine Receptor, B-type) | DRSC26738 | 3.02e5 | 3.50e5 | 3.92e5 | 4.17e5 | inactive |
| Nrt (Neurotactin) | DRSC11237 | 31674 | 27107 | 5.19e5 | 3.19e5 | inactive |
